Experiment [1] concerns the target tau 266-359 (R1-3) (human) (UniProt P10636). Put plainly: ELISA, antigen coated, scAb titrated. (In general: An ELISA detects its analyte on a solid surface through an enzyme-linked reagent.)
For experiment [2] the target is unchanged. Description: ELISA.
The target in experiment [3] is T1, tau 369-390 (human).
T1 sequence: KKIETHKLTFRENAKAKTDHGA
Put plainly: ELISA.

Chains of the proteins cited; added tags and fusions are not shown. Lines headed by an entry give the natural chain unless they say otherwise; changes in a name come on top.
UniProt P10636: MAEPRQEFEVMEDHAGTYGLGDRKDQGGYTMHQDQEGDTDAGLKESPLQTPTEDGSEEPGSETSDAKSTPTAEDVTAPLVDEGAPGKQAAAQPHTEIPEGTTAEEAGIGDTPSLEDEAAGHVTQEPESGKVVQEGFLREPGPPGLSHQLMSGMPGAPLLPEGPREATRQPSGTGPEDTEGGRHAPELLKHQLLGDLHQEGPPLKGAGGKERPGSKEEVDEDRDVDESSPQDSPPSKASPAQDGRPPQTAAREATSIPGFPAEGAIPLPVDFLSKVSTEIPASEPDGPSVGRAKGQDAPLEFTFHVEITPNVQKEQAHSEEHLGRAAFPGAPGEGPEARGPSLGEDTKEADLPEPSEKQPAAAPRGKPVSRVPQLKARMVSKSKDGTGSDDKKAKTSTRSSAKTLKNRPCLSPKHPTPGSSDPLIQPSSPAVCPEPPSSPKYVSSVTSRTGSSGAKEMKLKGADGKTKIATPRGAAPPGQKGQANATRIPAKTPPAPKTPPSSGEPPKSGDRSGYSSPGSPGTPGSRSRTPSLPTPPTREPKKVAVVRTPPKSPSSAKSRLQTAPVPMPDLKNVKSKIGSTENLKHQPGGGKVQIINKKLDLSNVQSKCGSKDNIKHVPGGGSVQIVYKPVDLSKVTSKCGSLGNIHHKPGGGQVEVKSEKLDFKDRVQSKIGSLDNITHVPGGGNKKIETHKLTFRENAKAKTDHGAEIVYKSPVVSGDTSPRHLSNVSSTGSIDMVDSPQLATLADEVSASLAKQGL

Experiment [4] deals with T2, tau 369-391 (human).
T2 sequence: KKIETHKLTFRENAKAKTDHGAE
Put plainly: ELISA.

The target in experiment [5] is Line 1 human tau fragment 296-390 (human) (UniProt P10636). Description: Western blot. (Immunoblotting shows a protein as a band on a membrane.)
Experiment [6] has the same target. Put plainly: Western blot of mouse brain homogenate (20 ug protein per lane, per the legend), probed with S1G2.
The target of experiment [7] is T2, tau 369-391 (human). Description: ELISA, antigen coated, scAb titrated; panel title 369-391.
Experiment [8] addresses T1, tau 369-390 (human). Description: ELISA, antigen coated, scAb titrated; panel title 369-390.

Positions count from the first letter of the chain named. No constants are given. Whether binding was seen depends on the method and setting. Some entries that bind do so weakly or less than the wild type.

B1: CE2 scAb (scFv, not shown: small tags and cut ends)
scFv: QVQLQESGPSLVKPSQTLSLTCTVSGFSLTNYPVGWVRQAPGKALEWIGNIENDGSANYASALKSRLSITRDTSKNQVSLSLSSATTEDTAVYYCGREFGGSDGYTYFVDIDYWGPGLLVTVSSEGKSSGASGESKVDDQAVLTQPSSVSKSLGQSVSITCSGSSSNVGYGNYVSWFQQVPGSAPKILIYGATSRASGVPDRFSGSRSGNTATLTITSLQAEDEADYYCASYDGSSSGVFGSGTRLTVLG
For the molecule B1, the binding result in experiment [1] and in experiment [2] was “binds” throughout.

B2: MD9 scAb (scFv, not shown: small tags and cut ends)
scFv: QVRLQESGPSLVKSSQTLSLTCTVSGFSLTRESIAWVRQAPGKVPEWLGGVGIDGTSYYSPALKSRLSITRDTSKSQASLSLSSVATEDTAMYYCARNYIDFEYWGPGLLVTVSSEGKSSGASGESKVDDQAVLTQLSSVSGSLGQRISITCSGSSSNVGIYDVSWFQQLPGSGLRTVIYGTNNRPSGVPDRFSGSRSGNTATLTISSLQSEDEAIYYCAAGDSSTIAVFGSGTRLTVLG
For the molecule B2, the binding result with tau 369-390 (human) [3] and with tau 369-391 (human) [4] was “binds” in each case.

B3: S1G2 mAb (antibody, mouse IgG2a, V domains shown)
VH: QVQLQESGPSLVKPSQTLSLTCTVSGFSLTSNSVGWVRQAPGKAPEWVAGIDTDGEEGYNPALNSRLSITRDTSKSQVSLSLSSVTSEDTAVYYCGRSYRADGLAYGYVQAIDYWGPGLLVTVSS
VL: QAVVTQPSSVSGSLGQRVSITCSGSFIGISSVGWFQQLPGSGLRTIIVASDGRPSGVPDRFSMSKSGNTATLTISSLQAEDEADYFCGSSDRTPYTGVFGSGTRLTVLG
For B3, the binding result in experiment [5] and in experiment [6] was “binds” in each case.

B4: S1F4 scAb (scFv, not shown: small tags and cut ends)
scFv: QVQLQESGPSLVKPSQTLSLTCTVSGFSLSSNSVGWVRQAPGKAPEWVAGIDTDGEEGYNPALNSRLSITRDTSKSQVSLSLSSVTSEDTAVYYCVRSYRADGLAYGYVQAIDYWGPGLLLTISSEGKSSGASGESKVDDQAVVTQPSSVSGSLGQRVSITCSGSFIGISSVGWFQQLPGSGLRTVIVASDGRPSGVPDRFSNSKSGNTATLTISSLQAEDEADYFCGSSDRTQYTGVFGSGTRLTVLG
Turning to B4, the binding entry with tau 369-391 (human) [7], in the experiment with tau 369-390 (human) [8], with tau 369-390 (human) [3] and with tau 369-391 (human) [4] was “binds” in each case.

B5: S1G2 scAb (scFv, not shown: small tags and cut ends)
scFv: B4 scFv with S30T, V96G, L121V, I123V, V186I, N203M, Q234P
On to B5, for which the binding entry in the experiment with tau 369-391 (human) [7], with tau 369-390 (human) [8], with tau 369-390 (human) [3] and in the experiment with tau 369-391 (human) [4] was “binds” each time.

B6: S1G10 scAb (scFv, not shown: small tags and cut ends)
scFv: B4 scFv with S30T, V96G, L121V, I123V, V144L, V150M, V186I, N203M
As to B6, the binding entry with tau 369-390 (human) [8], with tau 369-390 (human) [3] and in the experiment with tau 369-391 (human) [4] was “binds” each time.

B7: S1D12 scAb (scFv, not shown: small tags and cut ends)
scFv: QVQLQESGPSLVKPSQTLSLTCTVSGFSLNNNAVGWVRQAPGKVPESLVGCSSDGTCYYNSALKSRLDITRDTSKNQISLSLSSVTTDDAAVYYCTRGHYSIYGYDYLGTIDYWGPGLLVTVSSEGKSSGASGESKVDDQAVLTQPSSVSGSLGQRVSITCSGSSSNVGGGNSVGWYQHLPGSGLKTIIYDTNSRPSGVPDRFSGSRSGNTATLTINSLQAEDEGDYYCVTGDSTTHDDLVGSGTRLTVLG
As to B7, the binding entry in experiment [1] and in experiment [2] was “binds” throughout.

B8: CE3 scAb (scFv, not shown: small tags and cut ends)
scFv: QVRLQESGPSLVKPSQTLSVTCTVSGFSLISNAVGWVRQAPGKVPESLAGCSSDGKCYYNSALKSRLDITRDTSKNQISLSLSSVTTDDAAVYYCTRGYYPVYGYDYLGTIDYWGPGLLVTVSSEGKSSGASGESKVDDQAVLTQPSSVSGSLGQRVSITCSGSSSNVGRNDVAWFQQLPGSGLRTIIYGTTSRPSGIPDRFSGSKSGVTATLTIDSLQAEDEADYFCASGDSSAINDIFGSGTRLTVLG
For B8, the binding result in experiment [1] and in experiment [2] was “binds” in each case.

These data come from patent US20230257452A1.
